Experimental findings from paper PMC12040169 (PLOS Biology, 2025) are described below.

Each structure is given as a SMILES string. This is one part of the list.

This test deals with T1, CTL2-GFP (C. trachomatis L2/434/Bu, GFP-expressing).
T1 construct: L2/434/Bu, GFP-expressing
More on the design: species or system HeLa; Intracellular C. trachomatis growth in HeLa cells, bulk GFP fluorescence relative to DMSO. To be noted: bulk GFP, single well; 28.5 h, 10 µM; inhibitor.
In the case of `CN(CCN1CCCCC1)C(=O)Cn1ccnc1-c1ccccc1` [CBK281900], the “% of control remaining” value was 150.033%. The same measure for `COc1ccc(NC(=O)N(CCO)C2CCCCC2)c(OC)c1` [CBK008768]: 108.093%; for `COC(=O)c1ccc(N2CCN(C)CC2)c(NC(=O)c2cc(Br)ccc2OC)c1` [CBK269221]: 89.6432%. As to `CC(C)[C@@H](CO)n1c(=O)[nH]c2ncc(-c3cccc4ccccc34)nc21` [CBK064961], the “% of control remaining” value is reported as 103.056%. Next, `COc1ccc2c(c1)cc(C)c1n[nH]c(=O)n12` [CBK283766]: 166.771%; `C=C(C)Cn1c(SCC(C)C)nnc1-c1ccccc1C(=O)O` [CBK200093]: 121.073%. The same measure for `C/N=C1/c2cn3ccccc3c2CCN1C` [CBK022058]: 107.001%; for `O=C1CCCN1CCOc1nccnc1-c1ccccc1Cl` [CBK106999]: 94.3574%; for `Cc1ccc(NC(=O)c2nc3ccccc3[nH]2)c(C)n1` [CBK200296]: 157.15%. The same measure for `COCCN(C(=S)Nc1ccc(C)cc1Cl)C(C)c1cccnc1` (centres unmarked) [CBK294472]: 150.905%; for `O=C(CN1CCCCC1)N1CCCC1c1nc2ccccc2[nH]1` (centres unmarked) [CBK283935]: 123.021%; for `CCOC(=O)CNC(=O)Nc1cc2ccccc2c(Br)n1` [CBK063279]: 110.423%. Regarding `Cc1cc(COc2nccnc2OC2CCN(CCN3CCOCC3)CC2)no1` [CBK082961T], the “% of control remaining” value is listed as 112.223%. The same measure for `CC(C)c1ccc(S(=O)(=O)Nc2ccc(Br)c(F)c2)cc1` [CBK044556]: 83.156%; for `CCOC(=O)c1ccc(NC(=O)c2ccccc2-c2nc(-c3ccccc3Cl)no2)cc1` [CBK268919]: 112.332%. The same measure for `O=C(CCC1CCCO1)NC(Cc1ccsc1)c1cccnc1` (centres unmarked) [CBK285159]: 134.314%; for `CCCc1cn(C2CCN(c3cc(-n4cc(C)cn4)ncn3)CC2)nn1` [CBK307127]: 114.429%; for `CC(NC(=O)C(C)(C)C)c1nc(-c2cccnc2)n[nH]1` (centres unmarked) [CBK104007]: 114.516%.

Regarding `Cc1cccc(CN(CCN)C(=O)Nc2ccc(C(C)(C)C)cc2)n1` [CBK046230C], the “% of control remaining” value is 57.9837%. Regarding `COc1cccc(C(=O)Nc2ccc(Br)cc2C(=O)O)c1` [CBK022487], the “% of control remaining” value turned out to be 101.094%. Next, `CCCNC(=O)CN(C)Cc1nc(-c2cccc(C(F)(F)F)c2)no1` [CBK305672]: 98.9983%; `CC(C)(Oc1ccc(Cl)cc1)C(=O)Nc1nnc[nH]1` [CBK288220]: 123.887%; `Cn1c(N2CCC(C(=O)NCC3CC3)CC2)nc2ccccc21` [CBK283957]: 133.557%. Next, `CC(=O)Nc1ccc(C#CC2(NC(=O)C3CC3)CCCCC2)cn1` [CBK284676]: 103.335%; `CC(=O)Nc1cc(NC(C)=O)c(O)c(C(=O)O)c1` [CBK009871]: 131.059%. Next, `CC(C)n1cc(C(=O)N2CCCCC2c2nc3ccccc3[nH]2)cn1` (centres unmarked) [CBK283679]: 100.94%; `CCOC(=O)c1ccccc1NS(C)(=O)=O` [CBK262271]: 76.9777%; `CNc1nc(NCCc2cnc(=O)n(C)c2O)cc(C2CCOC2)n1` (centres unmarked) [CBK307156]: 124.128%. On to `Cc1ccc(C(C)(C)C(=O)N2CCC(CC(=O)N(C)C)CC2)cc1` [CBK281973], for which the “% of control remaining” value came to 119.097%. The same measure for `COc1ccc(CCNC(=O)c2ccccc2NS(=O)(=O)c2cc(C(=O)O)ccc2OC)cc1` [CBK297506]: 148.823%; for `CC(C)c1ccc(N2C(=O)N[C@@H]3CCN(S(=O)(=O)c4ccccc4)[C@@H]3C2=O)cc1` [CBK289289]: 98.5456%; for `Cc1nn(C)cc1C(=O)NC(Cc1ccsc1)c1cccnc1` (centres unmarked) [CBK285392]: 122.927%. The same measure for `COC(=O)c1c(NC(=O)c2c(C)c(-c3ccc(Cl)cc3Cl)nc3ccccc23)sc2c1CCC(C)C2` (centres unmarked) [CBK262644]: 100%; for `COc1nc(N(C)C)nc(N2CC(=O)N(c3ccccc3)C2=N)n1` [CBK269079]: 191.108%; for `O=C(C1CCCCC1)N1CC(n2nc(-c3ccccc3)ccc2=O)C1` [CBK284616]: 152.396%. The same measure for `CC(=O)N1CCC[C@H]2NC(=O)CNC(=O)C3(C/C=C/C[C@H]21)CCNCC3` [CBK292173]: 115.388%. With `CSc1nc(O)c(C(c2ccc(C(=O)O)cc2)c2c(O)nc(SC)nc2O)c(O)n1` [CBK265288], the “% of control remaining” value is given as 89.7365%. Next, `COC(=O)c1cn(Cc2ccccc2)nn1` [CBK073903]: 136.776%; `O=C(NCC1CCCO1)[C@H]1CCCC[C@H]1C(=O)O` (some centres unmarked) [CBK287104]: 112.883%; `COc1cc(C)c(S(=O)(=O)n2c(C)nc3ccccc32)cc1C` [CBK265464]: 104.472%. The same measure for `O=C(O)CCCNS(=O)(=O)c1ccc([N+](=O)[O-])cc1` [CBK261317]: 100%. For the molecule `O=C(Cn1ccccc1=O)Nc1ccc(OCC(F)(F)F)nc1` [CBK304556], the “% of control remaining” value is listed as 152.264%.

Regarding `NC[C@H]1CC[C@H](C(=O)NCC2CCCN(Cc3ccccc3)C2)CC1` (some centres unmarked) [CBK282764], the “% of control remaining” value was found to be 125.421%.

For `O=C(NCCc1ccccc1)c1nc(-c2ccncc2)cs1` [CBK288604], the “% of control remaining” value is 119.392%. As for `CCc1nnc(NS(=O)(=O)c2ccc(Nc3ccc4nonc4c3[N+](=O)[O-])cc2)s1` [CBK261445], the “% of control remaining” value is on record as 78.072%. Next, `Cc1ccc(C)c2[nH]c(=O)c(CN(Cc3cccnc3)C(=O)NC3CCCCC3)cc12` [CBK068091]: 103.974%.

Regarding `COc1ccc(CSc2nc(N)c3c4c(sc3n2)CCCC4)cc1` [CBK131876], the “% of control remaining” value turned out to be 101.163%.

With `O=C(O)c1ccc(NC2CCS(=O)(=O)C2)cc1` (centres unmarked) [CBK287168], the “% of control remaining” value was 153.935%. Next, `CC1=NNC(=O)C1CCC(=O)N/N=C/C(Br)=C/c1ccccc1` (centres unmarked) [CBK262929]: 100.362%. On to `Cc1ccnc2nc(C(=O)OC(C)C(=O)c3ccc4c(c3)CCC4)nn12` (centres unmarked) [CBK304528], for which the “% of control remaining” value came to 134.399%. As to `O=C1NN=C(Cc2ccccc2)C1c1ccccc1` (centres unmarked) [CBK067757], the “% of control remaining” value is recorded as 107.739%. Next, `CC(C)(C)c1ccc(-c2nc3ncccc3cc2O)cc1` [CBK073703]: 125.537%. The same measure for `Cc1ccc(CNc2oc(COc3ccc(Br)cc3)nc2C#N)cc1` [CBK074467]: 109.396%. Take `COc1cc(Nc2cccc(-c3ccsc3)n2)cc(OC)c1OC` [CBK036987]: the “% of control remaining” value is 110.204%. Next, `Fc1ccc(Oc2nccnc2N2CCN(Cc3ccccc3F)CC2)cc1` [CBK083009T]: 101.143%; `Cc1cc(C)c(C)c(S(=O)(=O)Nc2ccc(C(=O)NCc3ccccn3)cc2)c1C` [CBK267275]: 154.812%. Turning to `O=S(=O)(CCN1CCN(C(c2ccccc2)c2ccccc2)CC1)c1ccc(Cl)cc1` [CBK074810], the “% of control remaining” value worked out at 104.919%. The same measure for `Cn1nc(-c2ccc(F)cc2)cc1C(=O)NCCn1ccnc1` [CBK281576]: 129.379%. The same measure for `O=C(c1csc2c1CCCC2)N1CCc2c(nc[nH]c2=O)C1` [CBK283717]: 150.182%.

In the case of `CC1CCN(S(=O)(=O)c2ccc(C(=O)O)cc2)CC1` [CBK287195], the “% of control remaining” value came out at 133.697%. The same measure for `c1cncc(COc2nccnc2OC2CCN(Cc3cccnc3)CC2)c1` [CBK083158]: 117.506%; for `Cc1ccc(C(=O)n2nc(-c3cccnc3)nc2N)cc1` [CBK288172]: 117.487%.

With `Cn1c(=O)c2c(nc(CN3CCOCC3)n2Cc2c(F)cccc2Cl)n(C)c1=O` [CBK269224], the “% of control remaining” value was found to be 125.677%. Next, `N#CCn1nnc(-c2ccc3c(c2)OCO3)n1` [CBK062663]: 124.113%; `COc1ccc(-c2ccccc2NS(=O)(=O)c2ccc3c(c2)CCC(=O)N3)cc1` [CBK286370]: 107.535%; `O=C(CSc1nc2ccccc2[nH]1)Nc1cccc(C(=O)O)c1` [CBK263225]: 88.2245%. With `COC(=O)[C@H]1CCc2ccccc2N1C(=O)c1ccco1` [CBK284259], the “% of control remaining” value is 141.995%. `Cc1ccc(C2(c3ccc(C)cc3)CC2C(=O)Nc2ccccc2[N+](=O)[O-])cc1` (centres unmarked) [CBK263591]: the “% of control remaining” value is 123.354%. Next, `O=C(NCc1ccccc1)[C@@H]1Cc2[nH]cnc2CN1C(=O)C1CCCCC1` [CBK288972]: 107.299%; `O=C(NCCc1ccc(O)cc1)c1ccc(-c2ccc(OC(F)(F)F)cc2)nc1` [CBK156224]: 82.5944%; `CCN1CCC2(CC1)Nc1cc(Cl)c(S(N)(=O)=O)cc1S(=O)(=O)N2` [CBK010418C]: 129.618%. As to `CCC(C)CS(=O)(=O)c1nc(C)c(C)n1CC1CCCO1` (centres unmarked) [CBK305107], the “% of control remaining” value is reported as 59.9998%. The same measure for `CCOC(=O)CCCNC(=O)N1CCCC(CO)C1` (centres unmarked) [CBK156344]: 114.834%; for `Cc1nc(-c2nnc(NC(=O)COc3ccc(Cl)cc3Cl)o2)cs1` [CBK287843]: 109.918%; for `CC(C)(O)C1CCCN(C(=O)c2cc(COc3cccc(F)c3)[nH]n2)C1` (centres unmarked) [CBK306653]: 121.123%. Regarding `Cc1noc(C)c1S(=O)(=O)n1c(=O)n(Cc2ccc(S(C)(=O)=O)cc2)c2ccccc21` [CBK106536], the “% of control remaining” value worked out at 119.885%.

For `COCC(=O)NC(Cc1cccs1)c1nc(C)cs1` (centres unmarked) [CBK285004], the “% of control remaining” value stood at 112.516%. Next, `COc1ccccc1-c1nccnc1N[C@H](C)c1ccccc1` [CBK038083]: 129.034%; `CC(=O)NCC(=O)N1CCCC2(C/C=C/COc3ccccc3C(=O)NCCNC2=O)C1` (centres unmarked) [CBK291991]: 134.626%; `O=C(CSc1nnc(-c2ccncc2)n1-c1ccccc1)N/N=C/c1c[nH]c2ccc(Br)cc12` [CBK262816]: 100%.
